Test results from patent EP2717941B1.
No constants are given. Whether binding was seen depends on the method and setting. Some results given as binding are weak or reduced against the parent protein; the word gives no strength.

Tests used:
CCR4 (human) [1] = biological target: T1, CCR4 (human) (UniProt P51679); assay: flow cytometry, biotinylated chemokine (1 µM) detected with fluorophore-streptavidin, Tregs of a PC patient
T1 sequence (looked up): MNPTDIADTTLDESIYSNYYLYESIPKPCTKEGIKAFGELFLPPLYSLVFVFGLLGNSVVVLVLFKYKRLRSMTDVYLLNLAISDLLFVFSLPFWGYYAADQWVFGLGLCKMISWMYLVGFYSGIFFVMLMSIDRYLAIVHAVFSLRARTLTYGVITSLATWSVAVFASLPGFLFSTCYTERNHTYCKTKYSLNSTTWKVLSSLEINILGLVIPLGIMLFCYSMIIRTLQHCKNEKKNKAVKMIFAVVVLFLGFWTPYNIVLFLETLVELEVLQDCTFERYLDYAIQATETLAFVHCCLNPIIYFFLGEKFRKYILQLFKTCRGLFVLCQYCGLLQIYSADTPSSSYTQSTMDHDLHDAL

CCR4 (human) [2] = biological target: T1, CCR4 (human); assay: flow cytometry, legend of FIG. 12
CCR4 (human) [3] = biological target: T1, CCR4 (human); assay: flow cytometry, biotinylated chemokine on CCR4-expressing Tregs

Measured: binding

B1: biotinylated MDC (bMDC) (ligand, human, UniProt O00626 25-93, looked up)
chain: GPYGANMEDSVCCRDYVRYRLPLRVVKHFYWTSDSCPRPGVVLLTFRDKEICADPRVPWVKMILNKLSQ
modifications: biotinylated (site not stated in Reference Example 2B)
binds: all assays above
